# Primary screen of a compound library

The chains behind the UniProt entries cited, without tags or fusion partners. Residues count along the entry.
UniProt P9WFT3, whole entry: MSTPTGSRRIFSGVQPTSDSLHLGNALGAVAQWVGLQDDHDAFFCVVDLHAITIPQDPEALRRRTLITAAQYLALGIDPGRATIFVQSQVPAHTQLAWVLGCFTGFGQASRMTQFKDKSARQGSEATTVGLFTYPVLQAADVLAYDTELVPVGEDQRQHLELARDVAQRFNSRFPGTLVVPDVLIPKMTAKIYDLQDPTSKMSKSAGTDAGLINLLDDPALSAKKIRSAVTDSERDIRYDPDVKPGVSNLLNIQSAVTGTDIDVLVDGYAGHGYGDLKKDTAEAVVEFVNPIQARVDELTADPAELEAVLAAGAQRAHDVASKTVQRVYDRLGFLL
UniProt P9WPC5, whole entry: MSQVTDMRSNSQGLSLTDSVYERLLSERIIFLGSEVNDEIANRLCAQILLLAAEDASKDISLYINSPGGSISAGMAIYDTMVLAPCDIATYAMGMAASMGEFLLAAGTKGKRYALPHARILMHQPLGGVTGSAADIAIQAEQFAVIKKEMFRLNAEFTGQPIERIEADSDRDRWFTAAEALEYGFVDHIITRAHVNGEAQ
UniProt P9WPC3, whole entry partner: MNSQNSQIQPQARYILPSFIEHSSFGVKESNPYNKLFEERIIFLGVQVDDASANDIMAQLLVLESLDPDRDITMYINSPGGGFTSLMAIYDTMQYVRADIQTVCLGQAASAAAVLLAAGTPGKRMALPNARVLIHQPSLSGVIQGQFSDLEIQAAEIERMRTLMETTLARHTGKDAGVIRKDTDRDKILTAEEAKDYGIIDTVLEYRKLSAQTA
UniProt Q4DA54, 1-478: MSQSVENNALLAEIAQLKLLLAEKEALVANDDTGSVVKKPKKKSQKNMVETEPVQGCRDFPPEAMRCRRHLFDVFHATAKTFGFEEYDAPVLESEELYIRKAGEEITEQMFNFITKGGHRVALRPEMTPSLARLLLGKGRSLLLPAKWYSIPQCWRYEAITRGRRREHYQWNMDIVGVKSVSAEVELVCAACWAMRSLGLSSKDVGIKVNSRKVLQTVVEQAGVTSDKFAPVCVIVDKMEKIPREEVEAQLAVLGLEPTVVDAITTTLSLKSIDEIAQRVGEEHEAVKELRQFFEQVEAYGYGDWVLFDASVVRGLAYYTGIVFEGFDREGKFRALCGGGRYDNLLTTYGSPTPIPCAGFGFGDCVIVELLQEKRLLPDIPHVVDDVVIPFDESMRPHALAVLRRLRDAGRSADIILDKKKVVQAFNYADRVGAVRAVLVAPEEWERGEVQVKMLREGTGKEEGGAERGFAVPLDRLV

Values are the deposited “Percent Effect”, in %.
The controls that fix the scale are not given in the record; negative values are as filed.
The compounds are a random part of those screened.
A dash means the value is not listed here; it may have been measured.

A: 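Tryptophan-tRNA ligase, Mycobacterium tuberculosis (UniProt P9WFT3). Enzyme assay of tryptophanyl-tRNA synthetase; the read-out is not stated. Tested at 10 µM. Higher most likely means stronger inhibition; the record gives no direction and few retests gave an IC50. Of about 65,000 compounds tested this way, about 64 (0.098%) reached 50% or more in at least one test.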
B: 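Protease assay of ClpP1P2, read by the AMC dye that it sets free. Target: ClpP1P2, Mycobacterium tuberculosis (UniProt P9WPC5 and UniProt P9WPC3). Concentration: 50 µM. Direction is inferred from only a few compounds that gave an IC50; most scored high, so higher reads as stronger inhibition. Most other retested compounds had strongly negative values. Size under these conditions: about 69,000 compounds, about 10 of them at 50% or above in at least one test.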
C: 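Histidine-tRNA ligase, Trypanosoma cruzi CL Brener (UniProt Q4DA54). Enzyme assay of histidyl-tRNA synthetase; the read-out is not stated. Tested at 30 µM. The record gives no direction; compounds that gave an IC50 in retests scored well above the rest, so higher reads as stronger inhibition. Size under these conditions: about 69,000 compounds, about 31 of them at 50% or above in at least one test.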

| # | SMILES | A | B | C |
|---|---|---|---|---|
| 1 | `COC(=O)c1ccc(C2SCC(=O)Nc3ccsc32)cc1` (configuration not stated) | -4.329% | -3.618% | -4.545% |
| 2 | `O=C(C1CCOCC1)N1CCCC1c1cncc(CN2CCCC2)n1` (configuration not stated) | 3.735% | -4.646% | 4.981% |
| 3 | `Cn1cc(N2C[C@@H]3CN(Cc4ccoc4)C[C@@H]3C2=O)cn1` | -3.454% | -8.769% | 8.911% |
| 4 | `COC(=O)CSCc1nc(-c2ccc(Cl)cc2)no1` | -9.128% | 8.374% | -2.469% |
| 5 | `CCN(Cc1ccc(CN(C)C)cc1)C(=O)c1ccncc1O` | -6.399% | -6.648% | 3.158% |
| 6 | `CCCc1cc(=O)[nH]c2nnc(SCC(=O)NC(C)(C)C)n12` | -0.7819% | 4.926% | 2.041% |
| 7 | `COc1cccc(S(=O)(=O)Cc2noc(CC(C)C)n2)c1` | -2.081% | -3.772% | 0% |
| 8 | `CC(NCc1c(C(C)C)nn(C)c1N1CCOCC1)C(N)=O` (configuration not stated) | -6.013% | 17.76% | 0% |
| 9 | `O=C(NC1CCS(=O)(=O)C1)c1cc(Sc2ncccn2)ccn1` (configuration not stated) | -0.5663% | -1.903% | 0.5181% |
| 10 | `COc1ncccc1C(=O)N1CCC2(CC1)CC(OC)CO2` (configuration not stated) | - | 9.025% | 6.63% |
| 11 | `CS(=O)(=O)Nc1ccn(Cc2ccc(Cl)cc2)n1` | 4.145% | -20.29% | -1.739% |
| 12 | `CC(Cn1ccnc1)NC(=O)NCc1ccc2c(c1)OCCO2` (configuration not stated) | -5.062% | -29.51% | 5.764% |
| 13 | `CCOc1ccccc1N(C)Cc1nccn1C` | 3.425% | 0.5028% | 6.329% |
| 14 | `Cn1nc(C2CCCN2)c2c(C(=O)NC3CC3)cc(C3CC3)nc21` (configuration not stated) | 14.78% | 5.01% | -1.775% |
| 15 | `Cc1csc([C@@H]2C[C@@H]3CCN(Cc4cc(C)on4)C[C@H]3O2)n1` | - | 2.148% | 2.21% |
| 16 | `CCc1nc(NS(=O)(=O)c2cccc(F)c2C)no1` | 0.7282% | -3.269% | 3.627% |
| 17 | `O=C(Nc1ncnc2c1CCC2)c1ccc2c(c1)OCO2` | -3.417% | 21.08% | 5.699% |
| 18 | `Cc1cnc2c(S(=O)(=O)NC(=O)C(C)OCC3CC3)cccc2c1` (configuration not stated) | -1.19% | 5.852% | 2.703% |
| 19 | `CO[C@@H]1CN(c2ccccc2)S(=O)(=O)[C@@]12CCNC2` | - | -10.77% | -1.156% |
| 20 | `CS(=O)(=O)NC1CCN(C(=O)c2cc3ccccc3s2)C1` (configuration not stated) | 0.8215% | -4.208% | 5.882% |
| 21 | `Oc1cc(-c2nccs2)nc(C2CCN(Cc3cccs3)CC2)n1` | -3.876% | -29.89% | 9.579% |
| 22 | `CSCc1ccc(C(=O)NCCCNc2ccc(C(F)(F)F)cn2)cc1` | -3.328% | -12% | 3.529% |
| 23 | `CCOCCNc1nc(-c2ccncc2)nc2c1CCNCC2` | 0.7647% | 2.344% | -1.087% |
| 24 | `Cc1ccc(F)cc1C(=O)N1CCOCC12CCCC2` | -2.581% | -2.437% | 3.03% |
| 25 | `Cc1ccc(CN2C[C@@H]3CN(CC4CCOCC4)CCO[C@@H]3C2)s1` | -0.5394% | 2.889% | 5.063% |
| 26 | `CN(C)C(=O)CSc1nnc(CCNC(=O)OC(C)(C)C)o1` | 5.829% | 11.14% | -3.825% |
| 27 | `N#Cc1ccc(F)c(CSCCN2CCOCC2)c1` | -4.823% | -1.117% | 3.191% |
| 28 | `O=C(c1ccc[nH]1)N1CCCC1c1nc(-c2ccccc2)n[nH]1` (configuration not stated) | 1.538% | -10.15% | 3.704% |
| 29 | `COc1ccc(CNC(=O)NC2CCN(c3ccccc3)C2=O)cc1` (configuration not stated) | 1.095% | -3.067% | 4.082% |
| 30 | `Cn1c(=O)oc2ccc(Nc3ncc(C#N)cc3Cl)cc21` | 4.938% | -10.17% | 4.762% |
| 31 | `Cc1cc2c(cc1C)OC(C(=O)NCCNC(=O)C1CCCC1)C2` (configuration not stated) | -2.224% | -11.43% | 3.804% |
| 32 | `CC(C)c1cc(C(=O)N2CCCC(Cn3cc(CO)nn3)C2)on1` (configuration not stated) | -2.703% | -18.51% | -2.632% |
| 33 | `N#Cc1ccc(NCCCN2C(=O)COc3ccccc32)nc1` | -1.122% | 2.492% | -0.5236% |
| 34 | `CCc1ncc(CN2CCCC3(CCC(=O)N(CCC(C)C)C3)C2)cn1` (configuration not stated) | 3.936% | -4.987% | 3.191% |
| 35 | `Cc1ccccc1C(=O)Nc1cnn(CC(=O)NC2CCCC2)c1` | 4.194% | -0.8951% | -1.653% |
| 36 | `N#CCC(=O)NCc1nnc2n1CCN(Cc1ccco1)C2` | 0.0969% | 6.837% | 6.135% |
| 37 | `COC1CCCN(C(=O)NCC(F)F)C1` (configuration not stated) | 1.713% | 3.322% | -10.98% |
| 38 | `CC(CS(C)(=O)=O)N(C(=O)CCc1ccsc1)C1CC1` (configuration not stated) | -0.1837% | 1.245% | 4.545% |
| 39 | `Cc1cnn(CC2CCCN2C(=O)c2ccc(F)cc2Cl)c1` (configuration not stated) | -1.76% | -24.32% | -1.994% |
| 40 | `Cc1[nH]ccc1C(=O)NCC1CC(=O)N(CCc2ccccc2)C1` (configuration not stated) | -5.346% | -6.769% | -1.02% |
| 41 | `CCN(C)CC1CCN(C(=O)Nc2ccc(-c3cc[nH]n3)cc2)C1` (configuration not stated) | 0.1211% | 0.948% | -2.521% |
| 42 | `COCC1CN(C(=O)c2ccccn2)Cc2nccn2C1` (configuration not stated) | -3.812% | -13.11% | 2.857% |
| 43 | `Cc1nc(C(=O)N2CC[C@@]3(C[C@H](NS(C)(=O)=O)CCO3)C2)cs1` | -2.971% | -2.032% | 4.902% |
| 44 | `Cc1ccccc1C(=O)NC(C)CN1CCOC1=O` (configuration not stated) | 0.2138% | 1.958% | 0.8696% |
| 45 | `N#Cc1cc(N2CCC(S(N)(=O)=O)CC2)c2ccccc2n1` | -0.641% | -5.37% | 7.407% |
| 46 | `c1cc(CN2CCC3(CCOCC3COCC3CC3)CC2)co1` (configuration not stated) | -2.344% | -8.931% | 0% |
| 47 | `COc1cccc(CN2CC[C@H]3[C@@H](C2)[C@H](c2ccsc2)CN3C(C)=O)c1` | - | 6.938% | 3.39% |
| 48 | `Cc1cc(C)n(CC(=O)N2CCCCC2CCN2CCCC2=O)c(=O)n1` (configuration not stated) | 2.968% | 0.5558% | 3.03% |

The first 6 entries again:

SMILES,A,B,C
COC(=O)c1ccc(C2SCC(=O)Nc3ccsc32)cc1 (configuration not stated),-4.329%,-3.618%,-4.545%
O=C(C1CCOCC1)N1CCCC1c1cncc(CN2CCCC2)n1 (configuration not stated),3.735%,-4.646%,4.981%
Cn1cc(N2C[C@@H]3CN(Cc4ccoc4)C[C@@H]3C2=O)cn1,-3.454%,-8.769%,8.911%
COC(=O)CSCc1nc(-c2ccc(Cl)cc2)no1,-9.128%,8.374%,-2.469%
CCN(Cc1ccc(CN(C)C)cc1)C(=O)c1ccncc1O,-6.399%,-6.648%,3.158%
CCCc1cc(=O)[nH]c2nnc(SCC(=O)NC(C)(C)C)n12,-0.7819%,4.926%,2.041%

Data taken from ChEMBL document CHEMBL3988442, “University of Dundee, Small-Polar-MMV Screening Library” (2021).